The series concerns bacterial strains versus sheep red blood cells. The experiment in a line: Therapeutic index (cell selectivity), HC10/GM. The conditions noted are these: 512 μM used for HC10 when no hemolysis at 256 μM.

Where no end group is shown, it is not given here.

For the molecule `CC[C@H](C)[C@H](NC(=O)[C@H](CCCCN)NC(=O)[C@H](CCCCN)NC(=O)[C@H](Cc1ccccc1)NC(=O)[C@H](CC(C)C)NC(=O)[C@H](CCCCN)NC(=O)[C@@H](N)CCCCN)C(=O)N[C@@H](CC(C)C)C(=O)N[C@@H](CCCCN)C(=O)N[C@@H](Cc1c[nH]c2ccccc12)C(=O)N[C@@H](CC(C)C)C(N)=O` [BP4], the “TI (therapeutic index, HC10/GM)” value is reported as 27.4.
In the case of KKWFKKILKWL-NH2 [BP6] it was 64.0; in that of KKLWKKIWKYW-NH2 [BP15], 29.1.
As for KKLWKKILKWL-NH2 [BP8], the “TI (therapeutic index, HC10/GM)” value was determined as 52.2.
For `CC[C@H](C)[C@H](NC(=O)[C@H](CCCCN)NC(=O)[C@H](CCCCN)NC(=O)[C@H](Cc1c[nH]c2ccccc12)NC(=O)[C@H](CC(C)C)NC(=O)[C@H](CCCCN)NC(=O)[C@@H](N)CCCCN)C(=O)N[C@@H](CC(C)C)C(=O)N[C@@H](CCCCN)C(=O)N[C@@H](Cc1ccc(O)cc1)C(=O)N[C@@H](CC(C)C)C(N)=O` [BP1], the “TI (therapeutic index, HC10/GM)” value stood at 22.7.
In the case of `CC[C@H](C)[C@H](NC(=O)[C@H](CCCCN)NC(=O)[C@H](CCCCN)NC(=O)[C@H](Cc1ccccc1)NC(=O)[C@H](CC(C)C)NC(=O)[C@H](CCCCN)NC(=O)[C@@H](N)CCCCN)C(=O)N[C@@H](Cc1c[nH]c2ccccc12)C(=O)N[C@@H](CCCCN)C(=O)N[C@@H](Cc1ccc(O)cc1)C(=O)N[C@@H](CC(C)C)C(N)=O` [BP3] it was 18.8.
In the case of KKLFKKILKWW-NH2 [BP12], the “TI (therapeutic index, HC10/GM)” value is 17.0.
Next, `CC[C@H](C)[C@H](NC(=O)[C@H](CCCCN)NC(=O)[C@H](CCCCN)NC(=O)[C@H](Cc1ccccc1)NC(=O)[C@H](CC(C)C)NC(=O)[C@H](CCCCN)NC(=O)[C@@H](N)CCCCN)C(=O)N[C@@H](CC(C)C)C(=O)N[C@@H](CCCCN)C(=O)N[C@@H](Cc1ccc(O)cc1)C(=O)N[C@@H](CC(C)C)C(N)=O` [BP100]: 22.7; KKLFKKWLKYW-NH2 [BP10]: 16.4; KKLFKKIWKWL-NH2 [BP11]: 49.2.
Next, KKLWKKIWKYL-NH2 [BP7]: 53.3; KKWFKKWLKWL-NH2 [BP13]: 36.1; KKLFKKWWKYL-NH2 [BP9]: 20.4.
Next, `CC(C)C[C@H](NC(=O)[C@H](Cc1ccc(O)cc1)NC(=O)[C@H](CCCCN)NC(=O)[C@H](CC(C)C)NC(=O)[C@H](Cc1c[nH]c2ccccc12)NC(=O)[C@H](CCCCN)NC(=O)[C@H](CCCCN)NC(=O)[C@H](Cc1ccccc1)NC(=O)[C@H](CC(C)C)NC(=O)[C@H](CCCCN)NC(=O)[C@@H](N)CCCCN)C(N)=O` [BP2]: 27.7; KKWWKKILKYL-NH2 [BP5]: 124.9.
Turning to KKLWKKWLKYW-NH2 [BP14], the “TI (therapeutic index, HC10/GM)” value is 34.4.
Next, KKLFKKWWKWL-NH2 [BP16]: 15.7.

The record behind these values is article PMC11596392, “Enhanced Antibacterial, Anti-Inflammatory, and Antibiofilm Activities of Tryptophan-Substituted Peptides Derived from Cecropin A-Melittin Hybrid Peptide BP100” (Molecules, 2024).
